In article PMC10454365:

Key:
Experiment in all cases: pull-down; GST-tagged LY6K constructs co-expressed with flag-tagged TbR1 in 293T cells; lysates in RIPA buffer; Glutathione Sepharose 4B beads; Western blot with Flag and GST antibodies
[1] = molecular target: GST-tagged LY6K fragment 98–138 (human)
[2] = molecular target: GST-tagged LY6K residues 18–58 (human)
[3] = molecular target: GST-tagged LY6K fragment 58–98 (human)

- binding [1]: binds
- binding [2]: no binding
- binding [3]: binds
B1: Flag-tagged TbR1 (receptor, UniProt P36897 34-503)
chain: LQCFCHLCTKDNFTCVTDGLCFVSVTETTDKVIHNSMCIAEIDLIPRDRPFVCAPSSKTGSVTTTYCCNQDHCNKIELPTTVKSSPGLGPVELAAVIAGPVCFVCISLMLMVYICHNRTVIHHRVPNEEDPSLDRPFISEGTTLKDLIYDMTTSGSGSGLPLLVQRTIARTIVLQESIGKGRFGEVWRGKWRGEEVAVKIFSSREERSWFREAEIYQTVMLRHENILGFIAADNKDNGTWTQLWLVSDYHEHGSLFDYLNRYTVTVEGMIKLALSTASGLAHLHMEIVGTQGKPAIAHRDLKSKNILVKKNGTCCIADLGLAVRHDSATDTIDIAPNHRVGTKRYMAPEVLDDSINMKHFESFKRADIYAMGLVFWEIARRCSIGGIHEDYQLPYYDLVPSDPSVEEMRKVVCEQKLRPNIPNRWQSCEALRVMAKIMRECWYANGAARLTALRIKKTLSQLSQQEGIKM

Results are given in words; binding and its absence hold for the method and conditions named. In cells and extracts the contact can be indirect. For part of these data: Binding can be weak; no strength is given. Tags and fused reporters may be left off the sequences shown.
